# Assay results taken from article PMC7990796, “Efficacy of a Combined Antiplatelet Therapy Is Not Affected by a Simultaneous Binding of Cangrelor and PSB 0777 to Albumin” (Frontiers in Pharmacology, 2021).
# System: platelets (platelet-rich plasma, isolated platelets)
# Assay: Inhibition of ADP-induced platelet activation (P-selectin/CD62P expression, flow cytometry)
# Format: cell-based, human
# Conditions: 17 nM
# Protocol: Human blood was obtained from consecutively recruited healthy volunteers (simple random non-stratified sampling): four men and seven women; mean age 25 ± 5 years. All individuals provided their written informed consent to participate in the study. The exclusion criteria were the same as described previously ([Wzorek et al., 2020]). The study was approved by the Human Studies Committee of the Medical University of Lodz (Poland) and was conducted in accordance with the guidelines established by the Declaration of Helsinki. Whole blood was collected into polypropylene tubes with a blood-to-acid citrate dextrose solution (ACD) ratio of 6:1 (vol:vol).
# Human platelet-rich plasma (PRP) was prepared by centrifuging of anticoagulated whole blood at 190 x g for 12 min at 37°C. […] Platelet count in PRP was measured with automated haematology analyzer Sysmex XS-800i™ (Sysmex, Kobe, Japan) and adjusted to 1 × 10^8 cells per ml. […]
# The effect of plasma or HSA on inhibition of platelet activation by cangrelor was assessed by two-colour flow cytometry with the use of anti-CD61/PerCP (for platelet gating) and anti-CD62/PE (for detection of activated platelets). The antiplatelet activity of cangrelor was evaluated in PRP and suspensions of isolated platelets, when the effect of plasma was examined, or in isolated platelets containing 4% HSA, when the effect of albumin was studied. […]
smiles,measurement,setting,value
CSCCNc1nc(SCCC(F)(F)F)nc2c1ncn2[C@@H]1O[C@H](COP(=O)(O)OP(=O)(O)C(Cl)(Cl)P(=O)(O)O)[C@@H](O)[C@H]1O [cangrelor],"difference in inhibition of platelet activation, PRP compared to isolated platelets","lower in PRP, p < 0.05",1.2 fold
same,"difference in inhibition of platelet activation, platelets with HSA compared to controls","lower with 4% HSA, p < 0.01",1.3 fold
